The values below come from patent publication US20150225469A1.

Test [1] concerns the target T1, Patched1 (Ptch1) (mouse) (UniProt Q61115).
T1 sequence (looked up): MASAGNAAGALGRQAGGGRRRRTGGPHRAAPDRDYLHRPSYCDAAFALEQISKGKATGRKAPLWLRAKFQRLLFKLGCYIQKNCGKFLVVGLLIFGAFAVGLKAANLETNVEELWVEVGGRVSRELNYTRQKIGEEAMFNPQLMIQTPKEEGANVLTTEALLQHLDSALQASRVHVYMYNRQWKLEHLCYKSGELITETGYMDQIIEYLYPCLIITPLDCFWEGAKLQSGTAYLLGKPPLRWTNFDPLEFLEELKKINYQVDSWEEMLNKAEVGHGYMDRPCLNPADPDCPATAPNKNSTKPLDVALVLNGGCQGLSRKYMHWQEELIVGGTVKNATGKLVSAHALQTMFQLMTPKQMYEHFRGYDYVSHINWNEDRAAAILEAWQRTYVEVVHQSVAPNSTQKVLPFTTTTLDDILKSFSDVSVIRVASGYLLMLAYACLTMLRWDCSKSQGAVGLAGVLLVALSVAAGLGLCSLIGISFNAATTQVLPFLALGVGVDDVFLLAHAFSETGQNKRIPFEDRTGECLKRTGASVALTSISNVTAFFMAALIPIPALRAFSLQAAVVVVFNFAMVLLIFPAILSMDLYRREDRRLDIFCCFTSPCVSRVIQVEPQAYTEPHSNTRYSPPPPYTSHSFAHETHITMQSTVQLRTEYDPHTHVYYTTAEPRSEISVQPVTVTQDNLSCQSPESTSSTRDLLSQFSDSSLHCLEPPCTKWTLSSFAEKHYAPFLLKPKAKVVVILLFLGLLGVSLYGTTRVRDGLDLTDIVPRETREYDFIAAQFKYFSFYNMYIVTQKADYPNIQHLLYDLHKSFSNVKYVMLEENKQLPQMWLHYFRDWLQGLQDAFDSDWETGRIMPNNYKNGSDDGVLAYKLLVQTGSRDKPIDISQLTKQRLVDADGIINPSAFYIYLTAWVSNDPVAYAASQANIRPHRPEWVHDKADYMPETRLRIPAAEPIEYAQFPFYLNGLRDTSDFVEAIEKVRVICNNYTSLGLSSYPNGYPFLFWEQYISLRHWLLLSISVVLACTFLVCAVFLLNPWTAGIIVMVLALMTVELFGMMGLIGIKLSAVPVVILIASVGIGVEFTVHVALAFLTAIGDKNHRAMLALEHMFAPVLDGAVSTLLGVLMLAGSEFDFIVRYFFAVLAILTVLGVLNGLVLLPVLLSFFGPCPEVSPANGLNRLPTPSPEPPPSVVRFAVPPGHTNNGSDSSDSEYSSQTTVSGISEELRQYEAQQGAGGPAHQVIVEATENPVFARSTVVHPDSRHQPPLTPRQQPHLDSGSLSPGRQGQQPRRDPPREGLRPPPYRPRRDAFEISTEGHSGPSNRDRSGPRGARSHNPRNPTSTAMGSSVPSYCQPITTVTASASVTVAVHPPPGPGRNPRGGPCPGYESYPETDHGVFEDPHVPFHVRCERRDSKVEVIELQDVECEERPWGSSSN
Nature of the test: co-immunoprecipitation from mouse chondrocyte lysate with anti-human BBF2H7 C terminus polyclonal antibody, blotted with anti Ptch1 antibody.

In test [2] the target is T1, Patched1 (Ptch1) (mouse). Description: co-immunoprecipitation from mouse chondrocyte lysate with anti-human BBF2H7 C terminus polyclonal antibody, blotted with a Ptch1 antibody.

No constants are given. Whether binding was seen depends on the method and setting. Binding seen in cells or lysates may run through a third protein. Some binding calls cover weakened binding; strength is not graded here.

B1: BBF2H7 C terminus peptide of mouse chondrocytes (extracellularly secreted C terminus partial peptide of mouse BBF2H7) (peptide)
chain: IYEEHAPLEESSSPASAGELGGWDRGSSLLRASSGLEALPEVDLPHFLISNETSLEKSVLLELQQHLVSSKLEGNETLKVVELERRVNATF
Turning to B1, the binding entry in the test with Patched1 (Ptch1) (mouse) [1] and in the test with Patched1 (Ptch1) (mouse) [2] was “binds” in each case.
